Assay results reported in publication PMC5996148.
Some of the results follow.

Tests used:
Experiment in all cases: protein microarray (ProtoArray v5.0), streptavidin-Alexa Fluor 647
Conditions in all cases: 3'-biotin; 20 mM Tris (pH 7.5), 5 mM MgCl2, 100 mM KCl, 0.1% Tween-20, A/T-rich and random oligonucleotide blockers; temperature not stated; high values mean tight binding
[1] = system: Spermatogenesis- and oogenesis-specific basic helix-loop-helix-containing protein 2 (human)
[2] = system: Spermatogenesis-associated protein 7 (human)
[3] = system: Spermine synthase (human)
[4] = system: StAR-related lipid transfer protein 4 (human)
[5] = system: StAR-related lipid transfer protein 5 (human)
[6] = system: Stathmin (human)
[7] = system: Sterol-4-alpha-carboxylate 3-dehydrogenase, decarboxylating (human)
[8] = system: Sulfate anion transporter 1 (human)
[9] = system: Sulfotransferase 4A1 (human)
[10] = system: Sulfotransferase family cytosolic 1B member 1 (human)
[11] = system: Suprabasin (human)
[12] = system: Synaptonemal complex protein 2-like (human)
[13] = system: Synaptophysin (human)
[14] = system: Syndecan-1 (human)
[15] = system: Synembryn-A (human)
[16] = system: Syntaxin-10 (human)
[17] = system: Syntaxin-1B (human)
[18] = system: T-complex protein 11-like protein 2 (human)
[19] = system: TAC1 (human)
[20] = system: TAF5-like RNA polymerase II p300/CBP-associated factor-associated factor 65 kDa subunit 5L (human)

With “GGGAGGCTGAGGCAGG [G4-1 biotinylated (PQS2)]” the binding signal [1] was -0.31 z-score, the binding signal [2] was -0.373 z-score and the binding signal [3] was -0.345 z-score. The binding signal [4] was -0.338 z-score, the binding signal [5] was -0.322 z-score and the binding signal [6] was -0.344 z-score. The binding signal [7] was -0.328 z-score, the binding signal [8] was -0.275 z-score and the binding signal [9] was -0.327 z-score. For the same sequence, the binding signal [10] was -0.338 z-score, the binding signal [11] was -0.317 z-score and the binding signal [12] was -0.294 z-score. For the same sequence, the binding signal [13] was -0.318 z-score, the binding signal [14] was -0.334 z-score and the binding signal [15] was -0.36 z-score. It also gave a binding signal [16] of -0.304 z-score, a binding signal [17] of -0.34 z-score and a binding signal [18] of -0.365 z-score. For the same sequence, the binding signal [19] was -0.267 z-score and the binding signal [20] was -0.314 z-score.
